For 1 molecule, binding results are on record in US20250026827A1.

Protein sequences, listed by entry. Tags and fused reporters are not part of them. Lines headed by an entry give the natural chain unless they say otherwise; changes in a name come on top.
UniProt O00241: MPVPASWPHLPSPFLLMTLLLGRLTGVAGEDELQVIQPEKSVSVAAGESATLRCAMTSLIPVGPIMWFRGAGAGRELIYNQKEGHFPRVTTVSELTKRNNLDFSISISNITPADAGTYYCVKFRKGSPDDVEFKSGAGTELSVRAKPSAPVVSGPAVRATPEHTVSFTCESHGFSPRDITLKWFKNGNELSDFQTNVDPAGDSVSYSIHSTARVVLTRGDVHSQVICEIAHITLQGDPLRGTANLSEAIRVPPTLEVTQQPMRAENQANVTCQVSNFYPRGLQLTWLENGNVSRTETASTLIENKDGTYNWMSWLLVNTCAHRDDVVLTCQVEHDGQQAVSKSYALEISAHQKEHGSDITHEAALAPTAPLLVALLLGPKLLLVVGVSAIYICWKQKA

These are yes or no findings as the source states them, for the method shown. Some results given as binding are weak or reduced against the parent protein; the word gives no strength.

The test concerns the target human SIRPβ1 domain 1 (D1) Fc fusion (human) (UniProt O00241). In words: Octet, Fab monovalent; binding kinetics showed poor fit to 1:1 model. (BLI is a label-free optical method that tracks binding on a fibre tip over time.)

B1: SB-31 Fab (Fab, V domains shown)
VH: QVQLVQSGAEVKKPGASVKVSCKASGYTFTSYYMHWVRQAPGQGLEWMGIINPGGGSTSYAQKFQGRVTMTRDTSTSTVYMELSSLRSEDTAVYYCAREGLYSSGWYIDVWGQGTLVTVSS
VL: DIQMTQSPSSVSASVGDRVTITCRASQGISSWLAWYQQKPGKAPKLLIYAASSLQSGVPSRFSGSGSGTDFTLTISSLQPEDFATYYCQQAVSHPFTFGGGTKVEIK
For B1, the binding result is listed as “binds”.
